Primary screen of a compound library

Protein sequences, listed by entry. Tags and fused reporters are not part of them. Residues count along the entry.
UniProt I6X8D2, whole entry: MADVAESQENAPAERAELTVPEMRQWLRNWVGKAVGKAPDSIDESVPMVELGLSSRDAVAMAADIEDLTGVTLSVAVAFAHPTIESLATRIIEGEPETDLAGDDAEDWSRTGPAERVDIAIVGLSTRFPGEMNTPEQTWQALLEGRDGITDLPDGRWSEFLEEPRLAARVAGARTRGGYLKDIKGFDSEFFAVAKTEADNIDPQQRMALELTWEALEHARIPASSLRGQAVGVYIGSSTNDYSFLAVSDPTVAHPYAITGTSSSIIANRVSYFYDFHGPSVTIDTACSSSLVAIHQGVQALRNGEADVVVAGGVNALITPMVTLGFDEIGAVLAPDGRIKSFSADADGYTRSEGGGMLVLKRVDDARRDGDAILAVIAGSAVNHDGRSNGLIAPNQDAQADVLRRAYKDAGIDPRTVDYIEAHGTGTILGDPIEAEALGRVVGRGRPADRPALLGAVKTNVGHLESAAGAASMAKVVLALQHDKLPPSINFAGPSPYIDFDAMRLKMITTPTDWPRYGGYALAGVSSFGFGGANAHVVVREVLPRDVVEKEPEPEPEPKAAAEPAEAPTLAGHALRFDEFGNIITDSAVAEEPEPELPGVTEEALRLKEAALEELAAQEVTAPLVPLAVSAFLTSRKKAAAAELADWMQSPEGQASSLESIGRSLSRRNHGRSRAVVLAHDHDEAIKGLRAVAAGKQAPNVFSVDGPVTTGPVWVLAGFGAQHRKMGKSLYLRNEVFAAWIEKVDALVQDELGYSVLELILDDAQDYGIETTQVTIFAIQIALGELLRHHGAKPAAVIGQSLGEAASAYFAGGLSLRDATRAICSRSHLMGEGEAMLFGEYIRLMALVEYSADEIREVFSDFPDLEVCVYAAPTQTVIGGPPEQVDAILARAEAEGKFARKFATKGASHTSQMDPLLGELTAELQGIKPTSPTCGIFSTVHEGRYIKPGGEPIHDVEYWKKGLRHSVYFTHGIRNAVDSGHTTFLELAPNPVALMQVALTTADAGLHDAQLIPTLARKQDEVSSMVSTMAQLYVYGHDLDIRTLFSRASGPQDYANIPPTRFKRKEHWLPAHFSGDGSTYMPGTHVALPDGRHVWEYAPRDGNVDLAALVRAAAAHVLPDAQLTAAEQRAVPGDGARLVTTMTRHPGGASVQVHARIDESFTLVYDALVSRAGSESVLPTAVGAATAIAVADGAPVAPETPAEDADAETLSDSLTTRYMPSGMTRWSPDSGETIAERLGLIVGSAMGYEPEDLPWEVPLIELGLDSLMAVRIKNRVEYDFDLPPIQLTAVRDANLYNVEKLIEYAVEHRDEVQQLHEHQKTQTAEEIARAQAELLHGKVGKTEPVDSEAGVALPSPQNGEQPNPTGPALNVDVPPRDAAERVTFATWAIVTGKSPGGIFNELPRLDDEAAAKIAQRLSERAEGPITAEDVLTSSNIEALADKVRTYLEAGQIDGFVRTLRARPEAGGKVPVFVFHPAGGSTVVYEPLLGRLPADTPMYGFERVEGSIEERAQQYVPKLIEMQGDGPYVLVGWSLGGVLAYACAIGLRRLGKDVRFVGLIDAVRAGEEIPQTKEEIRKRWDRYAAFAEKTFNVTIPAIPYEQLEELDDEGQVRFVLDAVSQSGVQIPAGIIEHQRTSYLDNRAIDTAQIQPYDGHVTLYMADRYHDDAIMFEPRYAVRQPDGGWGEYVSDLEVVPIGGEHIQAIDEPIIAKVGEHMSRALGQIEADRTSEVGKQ
UniProt Q4DA54, 1-478: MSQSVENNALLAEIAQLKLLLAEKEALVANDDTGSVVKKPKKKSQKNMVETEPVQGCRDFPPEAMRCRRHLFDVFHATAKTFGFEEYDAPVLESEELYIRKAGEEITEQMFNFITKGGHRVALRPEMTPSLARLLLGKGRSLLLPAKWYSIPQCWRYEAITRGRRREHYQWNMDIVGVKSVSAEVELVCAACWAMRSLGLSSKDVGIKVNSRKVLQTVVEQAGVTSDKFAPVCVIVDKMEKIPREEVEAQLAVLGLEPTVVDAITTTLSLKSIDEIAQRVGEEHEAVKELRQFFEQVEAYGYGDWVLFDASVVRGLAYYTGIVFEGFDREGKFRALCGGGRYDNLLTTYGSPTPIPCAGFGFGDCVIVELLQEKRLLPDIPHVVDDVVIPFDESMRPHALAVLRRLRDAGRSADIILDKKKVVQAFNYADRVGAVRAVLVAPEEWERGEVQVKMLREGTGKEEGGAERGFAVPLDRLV
UniProt P9WPC5, whole entry: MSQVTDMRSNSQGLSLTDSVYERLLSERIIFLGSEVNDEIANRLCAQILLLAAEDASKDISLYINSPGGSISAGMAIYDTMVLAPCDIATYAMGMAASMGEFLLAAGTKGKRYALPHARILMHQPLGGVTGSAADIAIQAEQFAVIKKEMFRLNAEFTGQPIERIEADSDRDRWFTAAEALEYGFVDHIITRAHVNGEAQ
UniProt P9WPC3, whole entry partner: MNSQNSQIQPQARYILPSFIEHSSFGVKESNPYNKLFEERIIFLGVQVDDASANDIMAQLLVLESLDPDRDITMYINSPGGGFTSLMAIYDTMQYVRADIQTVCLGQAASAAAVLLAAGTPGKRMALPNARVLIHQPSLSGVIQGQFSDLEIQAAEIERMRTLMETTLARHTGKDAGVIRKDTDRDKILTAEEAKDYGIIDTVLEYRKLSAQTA
UniProt A4I591, 1-473: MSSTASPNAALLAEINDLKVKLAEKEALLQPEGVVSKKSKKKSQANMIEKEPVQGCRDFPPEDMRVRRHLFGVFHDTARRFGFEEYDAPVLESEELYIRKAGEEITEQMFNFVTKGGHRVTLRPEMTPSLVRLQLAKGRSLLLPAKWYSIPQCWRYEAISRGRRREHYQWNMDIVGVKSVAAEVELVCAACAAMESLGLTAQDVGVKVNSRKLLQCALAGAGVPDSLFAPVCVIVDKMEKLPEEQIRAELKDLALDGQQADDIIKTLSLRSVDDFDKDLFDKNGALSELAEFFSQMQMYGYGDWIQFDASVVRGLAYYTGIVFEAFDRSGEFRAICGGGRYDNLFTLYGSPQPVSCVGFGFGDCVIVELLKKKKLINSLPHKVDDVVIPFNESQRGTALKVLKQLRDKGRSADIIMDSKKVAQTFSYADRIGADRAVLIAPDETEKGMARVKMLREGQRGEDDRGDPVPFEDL

The values are deposited in ChEMBL (CHEMBL3988442, “University of Dundee, Small-Polar-MMV Screening Library” (2021)).

Pks13 thioesterase: 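Polyketide synthase Pks13, Mycobacterium tuberculosis (UniProt I6X8D2). Enzyme assay of the thioesterase domain of polyketide synthase 13; the read-out is not stated. Concentration: 30 µM. The record gives no direction; the compounds picked for IC50 retests had high values, so higher reads as stronger inhibition. About 67,000 compounds were tested under these conditions; 0.46% (about 300) showed 50% or more at least once.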
TcHisRS: 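Histidine-tRNA ligase, Trypanosoma cruzi CL Brener (UniProt Q4DA54). Enzyme assay of histidyl-tRNA synthetase; the read-out is not stated. Compounds at 30 µM. Direction is inferred from retests: higher values go with stronger inhibition. About 69,000 compounds were tested under these conditions; 0.045% (about 31) showed 50% or more at least once.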
ClpP1P2: 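Protease assay of ClpP1P2, read by the AMC dye that it sets free. Target: ClpP1P2, Mycobacterium tuberculosis (UniProt P9WPC5 and UniProt P9WPC3). Compounds at 50 µM. Higher reads as stronger inhibition, judged from the few compounds that gave an IC50. Most other retested compounds had strongly negative values. Size under these conditions: about 69,000 compounds, about 10 of them at 50% or above in at least one test.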
Leishmania in macrophages: 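Cell assay of Leishmania donovani living inside macrophages; the read-out is not stated. Tested at 30 µM. Higher reads as stronger inhibition (inferred: compounds with an IC50 in retests scored well above the rest). About 69,000 compounds were tested under these conditions; 1.5% (about 1,000) showed 50% or more at least once.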
LiHisRS: 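Enzyme assay of histidyl-tRNA synthetase; the read-out is not stated. Target: Histidine-tRNA ligase, Leishmania infantum (UniProt A4I591). Concentration: 30 µM. The record gives no direction; compounds that gave an IC50 in retests scored well above the rest, so higher reads as stronger inhibition. The assay is labelled LdHisRS but filed under L. infantum. About 69,000 compounds were tested under these conditions; 0.6% (about 410) showed 50% or more at least once.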

Each number is a percent effect as filed.
How 0% and 100% were set is not recorded. Most values in the screen are low, and negative values occur.
The compounds are a random part of those screened.

{"compound": "Cn1ccc(C(=O)N2C[C@H]3CCC[C@@]3(COCc3cccnc3)C2)n1", "Pks13 thioesterase": -9.388, "TcHisRS": 5.6, "ClpP1P2": 4.955, "LiHisRS": 7.965}
{"compound": "O=C(O)C(F)(F)F.[H][C@@]12COC[C@]1([H])[C@@H](OCC1CCOCC1)CN2Cc1cc(C)c(C)o1", "Leishmania in macrophages": -9.645}
{"compound": "CN1C2(CCN(Cc3ccc(F)cc3)C2)c2ccccc2S1(=O)=O", "stereo": "stereo unspecified", "Pks13 thioesterase": 4.273, "TcHisRS": 5.747, "ClpP1P2": -11.86, "Leishmania in macrophages": -3.768, "LiHisRS": 4}
{"compound": "O=C1CCC(=O)c2oc3ccccc3c2N1", "Pks13 thioesterase": -1.253, "TcHisRS": -3.125, "ClpP1P2": -16.03, "Leishmania in macrophages": 7.852, "LiHisRS": -6.173}
{"compound": "CCOCCC1(CNC(=O)c2ccncc2Cl)CCC1", "Pks13 thioesterase": -15.33, "TcHisRS": 3.982, "ClpP1P2": -9.244, "Leishmania in macrophages": -5.586, "LiHisRS": 9.735}
{"compound": "Cc1ccccc1-c1cncc(C2CCN(Cc3ccccn3)CC2)n1", "Pks13 thioesterase": 7.162, "TcHisRS": 14.89, "ClpP1P2": 8.178, "Leishmania in macrophages": -7.659, "LiHisRS": 19.79}
{"compound": "COCCc1noc(CN2CCCC2c2noc(C)n2)n1", "stereo": "stereo unspecified", "Pks13 thioesterase": -11.75, "TcHisRS": 3.139, "ClpP1P2": -8.664, "Leishmania in macrophages": -10.79, "LiHisRS": 17.65}
{"compound": "CC(C)(C)NC(=O)NC(=O)CNC(C)(C)c1ccc2c(c1)OCCO2", "Pks13 thioesterase": -11.08, "TcHisRS": -1.504, "ClpP1P2": 6.331, "Leishmania in macrophages": 22.53, "LiHisRS": 35.71}
{"compound": "C[C@@H]1CN(CCOc2ccc(Cl)cc2)CC[C@@]1(O)C1CCOCC1", "Pks13 thioesterase": -1.684, "TcHisRS": 1.01, "ClpP1P2": -10.97, "Leishmania in macrophages": -0.1003, "LiHisRS": -1.064}
{"compound": "COC(=O)c1cccn1C1CCN(Cc2cccc(C(N)=O)c2)CC1", "Pks13 thioesterase": -12.94, "TcHisRS": 7.123, "ClpP1P2": -15.17, "Leishmania in macrophages": 0.4296, "LiHisRS": 10.26}
{"compound": "Cc1cc(C)n2ncc(CN3CCC(n4cc(CCO)nn4)CC3)c2n1", "Pks13 thioesterase": -27.2, "TcHisRS": 7.514, "ClpP1P2": -3.645, "Leishmania in macrophages": -1.77, "LiHisRS": 33.33}
{"compound": "O=C(O)C(F)(F)F.[H][C@@]12COC[C@]1(CNS(=O)(=O)CC)CN(CCc1ccccc1)C2", "Leishmania in macrophages": 18.98}
{"compound": "O=C(O)C(F)(F)F.O=C(O)C(F)(F)F.O=C(c1cccnc1)N1CCn2nnc(COc3cccnc3)c2C1", "Leishmania in macrophages": -14.96}
{"compound": "COc1ccc2[nH]cc(C3CCN(CCC(N)=O)CC3)c2c1", "TcHisRS": 8.046, "ClpP1P2": -12.21, "Leishmania in macrophages": 32.04, "LiHisRS": 17.74}
{"compound": "O=S(=O)(c1cccnc1)N1CCN(CCn2ccnc2)CC1", "Pks13 thioesterase": -35.95, "TcHisRS": 3.306, "ClpP1P2": -5.349, "Leishmania in macrophages": 8.162, "LiHisRS": 28.85}